Measurements as given in PubChem BioAssay AID493014 (National Center for Advancing Translational Sciences (NCATS), 2011).
This is one part of the list. Further columns of the screen follow, without active or inactive calls. Compounds called inactive in the main read-out are mostly missing here. The note in brackets gives the kind of curve behind each potency; many fits are weak.

Assay: qHTS Assay to Find Inhibitors of Chronic Active B-Cell Receptor Signaling
Conditions: ABC-DLBCL IkBa-CBG/CBR reporter, luminescence ratio (green luciferase fused to IkBa over red control in TMD8 lymphoma cells), 4 h
Outline: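 TMD8 ABC-DLBCL cells carrying doxycycline-inducible green luciferase fused to IkappaBalpha plus unfused red luciferase were exposed to compounds (up to 46 uM) for 4 hrs at 37C. Activity came from the overlap-corrected green/red luminescence ratio.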

[1] = measured here: CBR red luminescence, cell number
[2] = measured here: IkBa-CBG green luminescence

Compound	AC50 [1]	AC50 [2]
CC(C)=CCc1c(O)cc2c(c1O)C(=O)CC(c1ccc(O)cc1)O2 (stereo not drawn)	35.5 µM [falling, single point]	
COc1ccccc1/C=N/N=C(/N)N[N+](=O)[O-]	18.4 µM [falling, single point]	
C[C@H]1CCCC(=O)CCC/C=C/c2cc(O)cc(O)c2C(=O)O1	5.8 µM [falling, full curve]	
C/C(=N\NC(=O)c1cc(-c2ccc(C)s2)[nH]n1)c1ccncc1	10 µM [falling, partial curve, poor fit]	
CC(C)COC(=O)c1ccccc1C(=O)OCC(C)C	0.398 µM [falling, partial curve, poor fit]	
CN1CCN(CC(=O)Nc2ccc([N+](=O)[O-])cc2C(=O)c2ccccc2)CC1	0.708 µM [rising, full curve, poor fit]	
Cc1cc(O)c2c(c1)OC(C)(C)C1=C2CC(C)CC1 (stereo not drawn)	35.5 µM [rising, single point]	
NC(=O)c1ccc(C(=O)Nc2ccc([As](=O)(O)O)cc2)cc1	15.8 µM [falling, partial curve, poor fit]	
COC(=O)C1C(O)C(C)C(O)C(C)/C=C\C=C(/C)C(=O)Nc2c(C)c(OC(C)=O)c3c(c2O)C(=O)C(C)=C2OCOC(=C23)/C(C)=C/C(C)(O)C(O)C(C)C1O (stereo not drawn)	0.708 µM [falling, full curve, poor fit]	
Cc1ccccc1OCC(=O)N/N=C/c1cccc2cccnc12	12.6 µM [falling, partial curve]	
CCOC(=O)c1cccc(NC(=O)COc2nsnc2N2CCOCC2)c1	25.1 µM [falling, single point]	
c1cc2c(cc1[C@H]1OC[C@H]3[C@@H]1CO[C@@H]3c1ccc3c(c1)OCO3)OCO2	15.8 µM [rising, single point]	
CCOC(=O)Cn1c(=O)oc2cc(S(=O)(=O)Nc3cccc(C)c3)ccc21	0.00461 µM [rising, full curve, poor fit]	
O=C1NC(=O)C(=Cc2cc(Cl)ccc2OCc2ccc(C(=O)O)cc2)C(=O)N1	12.6 µM [falling, partial curve]	35.5 µM [falling, single point]
Cc1cccc(OCCCn2c(=O)oc3ccccc32)c1	2.82 µM [rising, full curve, poor fit]	
CCOC(=O)C(O)(c1ccc(NC(=S)NC(=O)c2ccc(Cl)cc2Cl)cc1)C(F)(F)F (stereo not drawn)	18.4 µM [falling, partial curve]	29.1 µM [rising, single point]
CNCCc1c[nH]c2ccccc12	35.5 µM [falling, single point]	
O=C(NCCc1ccccc1)c1cnc2ccccc2n1	10 µM [falling, partial curve]	
O=c1[nH]c(CN2CCNCC2)nc2ccccc12	0.731 µM [falling, full curve, poor fit]	
CC(C)n1c(O)c(C2c3cc(Cl)ccc3Oc3[nH]c(=O)n(C(C)C)c(=O)c32)c(=O)[nH]c1=O (stereo not drawn)	20 µM [falling, single point]	

Compound	AC50 [1]	AC50 [2]
CN(C)C(=O)Oc1ccc2c(c1)O/C(=C\c1cccc([N+](=O)[O-])c1)C2=O	12.6 µM [rising, single point]	
COC(=O)C1=C(c2cccc(OCc3ccccc3)c2)C[C@@H]2CC[C@H]1N2C(=O)NCCCc1ccccc1	16.4 µM [falling, single point]	
COCCCn1c(N)c(C(=O)Nc2ccccc2)c2nc3ccccc3nc21	10 µM [falling, partial curve, poor fit]	
CC(=O)Nc1ccc(C(c2c(O)c3ccccc3oc2=O)c2c(C)n(C)n(-c3ccccc3)c2=O)cc1 (stereo not drawn)	4.47 µM [falling, partial curve, poor fit]	
CCOc1cc2c(cc1OCC)-n1cccc1C(c1cc(C)c(OC)cc1C)NC2 (stereo not drawn)	11.2 µM [falling, single point]	
COC(=O)C1=Nc2ccccc2/C1=C\c1c(O)n(-c2ccc(OC)cc2)c(=O)[nH]c1=O	7.94 µM [falling, partial curve, poor fit]	
Cc1cccnc1NC1=NCC(C)S1 (stereo not drawn)	16.4 µM [rising, single point]	
Cn1c(=O)oc2cc(S(=O)(=O)N3CCC(C(=O)Nc4ccc(OC(F)(F)F)cc4)CC3)ccc21	0.00461 µM [rising, full curve, poor fit]	
Oc1ccc(Nc2nc(-c3ccccc3)nc3ccccc23)cc1	8.91 µM [falling, partial curve, poor fit]	
COC(=O)C1=C(c2ccc(OC(F)(F)F)cc2)C[C@@H]2CC[C@H]1N2C(=O)NCc1ccc(F)cc1	29.1 µM [falling, single point]	32.6 µM [rising, partial curve, poor fit]
Cc1nn(C)cc1C(=O)NNC(=S)Nc1ccccc1	35.5 µM [falling, single point]	
CCOc1cc2c(cc1OCC)-n1cccc1C(c1cccc(F)c1F)NC2 (stereo not drawn)	2.24 µM [rising, full curve, poor fit]	
C/C=C1\NC(=O)[C@@H](NC(=O)[C@H](CCc2ccc(O)cc2)NC(=O)[C@H](C)NC(=O)[C@H](O)CO)[C@@H](C)OC(=O)[C@H](C(C)C)NC(=O)[C@H](Cc2ccc(O)cc2)N(C)C(=O)[C@H](Cc2ccccc2)N2C(=O)C(CC[C@H]2O)NC1=O (stereo partly drawn)	0.92 µM [rising, full curve, poor fit]	
CN1C(=O)NC(=O)/C(=C\C=C\c2ccccc2[N+](=O)[O-])C1=O	3.55 µM [falling, partial curve, poor fit]	
O=c1[nH]c(=S)n(-c2ccc(Cl)cc2)c(O)c1/C=N/N1CCOCC1	1.41 µM [falling, full curve, poor fit]	
CCN1CCN(c2nc3ccccc3s2)CC1	5.01 µM [rising, full curve, poor fit]	
Cc1cccc(CCNCc2cc3ccc(C)cc3[nH]c2=O)c1	35.5 µM [falling, single point]	
CCCCn1c(NC(=O)c2ccco2)c(C(=O)OCC)c2nc3ccccc3nc21	17.8 µM [falling, partial curve, poor fit]	
CCOc1cc(C=C2C(=O)NC(=O)NC2=O)ccc1OS(=O)(=O)c1ccccc1	6.51 µM [falling, partial curve, poor fit]	32.6 µM [falling, partial curve, poor fit]
COc1ccccc1OCC(=O)Nc1ccc(Cl)cc1C(=O)c1ccccc1	0.164 µM [rising, full curve, poor fit]	

Compound	AC50 [1]	AC50 [2]
Cn1c(O)c(C=NCCCCCCCCCCC(=O)O)c(=O)n(C)c1=O	35.5 µM [falling, single point]	
Cc1ccc(-c2nn(Cc3ccccc3)cc2C=O)cc1	5.17 µM [rising, partial curve, poor fit]	
CN(C)CCn1c(=N)n(CC(O)c2ccc(Cl)c(Cl)c2)c2ccccc21 (stereo not drawn)	11.2 µM [falling, partial curve, poor fit]	
O=c1c2ccccc2nc(/C=C/c2ccccc2)n1-c1ccccc1F	17.8 µM [rising, single point]	
CN1C(=O)C(=Cc2sc(=O)n(-c3ccccc3)c2N(C)C)C(=O)N(C)C1=O	8.91 µM [falling, partial curve]	
O=C1NC(=O)C(CCc2ccncc2)(Cc2cccc(Cl)c2Cl)C(=O)N1c1ccc(Br)cc1 (stereo not drawn)	23.1 µM [rising, partial curve, poor fit]	
CCC(=O)CC(c1ccccc1)c1c(O)c2ccccc2sc1=O (stereo not drawn)	18.4 µM [rising, partial curve]	
CC1=CC(=O)C2=C(C)CC(O)C3C(C)C(=O)OC3C12 (stereo not drawn)	0.282 µM [falling, full curve, poor fit]	
CCCCC(=O)N/N=C/c1c(O)n(Cc2ccc(F)cc2)c(=O)[nH]c1=O	11.2 µM [rising, partial curve, poor fit]	
COc1cc(C(c2c(O)c3ccccc3oc2=O)c2c(C)n(C)n(-c3ccccc3)c2=O)ccc1O (stereo not drawn)	7.31 µM [falling, partial curve]	
CCN1CCN(c2ccc([N+](=O)[O-])cc2C(=O)OC)CC1	4.47 µM [rising, partial curve, poor fit]	
Cc1ccccc1N1C(=O)CC(=O)NC1=O	1.03 µM [falling, partial curve, poor fit]	
CN(C)CC1Oc2ccccc2OC1(O)c1ccccc1 (stereo not drawn)	12.6 µM [falling, partial curve, poor fit]	
CN1CCC(n2nccc2N)CC1	1.03 µM [falling, full curve, poor fit]	
Nc1ccc(Cl)cc1C(=O)c1ccccc1Cl		18.4 µM [falling, partial curve, poor fit]
Cc1csc(NC(=O)C2CCCN(S(=O)(=O)c3ccc4c(c3)oc(=O)n4C)C2)n1 (stereo not drawn)	29.1 µM [falling, single point]	
CCOC(=O)C(O)(c1ccc(N=Cc2ccccc2O)c(C)c1)C(F)(F)F (stereo not drawn)	0.731 µM [rising, full curve, poor fit]	
Cc1ccc(Cn2nnnc2CN2CCC(n3nnc4cc(C(F)(F)F)ccc43)CC2)cc1	20.6 µM [falling, single point]	
CN(Cc1cccc(-n2cccn2)c1)C(=O)CCc1nnc(C2CCCCC2)o1	35.5 µM [rising, partial curve, poor fit]	

Filtered by structure: the entries above containing a COOH group
Compound	AC50 [1]	AC50 [2]
O=C1NC(=O)C(=Cc2cc(Cl)ccc2OCc2ccc(C(=O)O)cc2)C(=O)N1	12.6 µM [falling, partial curve]	35.5 µM [falling, single point]
Cn1c(O)c(C=NCCCCCCCCCCC(=O)O)c(=O)n(C)c1=O	35.5 µM [falling, single point]	
